Patent publication US20040106141A1, “Methods and materials for examining pathways associated with glioblastoma progression” (The Regents of the University of California, priority 2002, published 2004)
At least one structure is not confirmed: it was looked up by name or label, or the drawing left a doubt.

System: glioblastoma tumor cell proliferation
Test: Ki-67 marker of cellular proliferation in glioblastoma tumors of rapamycin-treated patients
Type: in vivo, human
Settings: glioblastoma patients on rapamycin clinical trial

In the case of `CO[C@H]1C[C@@H]2CC[C@@H](C)[C@@](O)(O2)C(=O)C(=O)N2CCCC[C@H]2C(=O)O[C@H]([C@H](C)C[C@@H]2CC[C@@H](O)[C@H](OC)C2)CC(=O)[C@H](C)/C=C(\C)[C@@H](O)[C@@H](OC)C(=O)[C@H](C)C[C@H](C)/C=C/C=C/C=C/1C` [rapamycin], the “tumor cell proliferation (Ki-67), correlated with inhibition of S6 phosphorylation” value is reported as “diminished tumor cell proliferation”.
